Experimental data published in publication PMC10511320.

Sequences of proteins named here, by UniProt entry; tags and fusion partners are left off.
UniProt Q9BQ15, whole entry W55A/F78A: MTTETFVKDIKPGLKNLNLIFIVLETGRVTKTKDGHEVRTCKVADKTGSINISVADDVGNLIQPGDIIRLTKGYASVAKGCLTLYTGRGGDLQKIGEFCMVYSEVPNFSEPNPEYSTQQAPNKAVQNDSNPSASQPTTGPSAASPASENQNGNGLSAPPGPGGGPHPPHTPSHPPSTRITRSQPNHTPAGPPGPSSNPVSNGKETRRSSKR

Biological target: SSB1 W55A/F78A (human) (UniProt Q9BQ15)
Assay: EMSA
Conditions: described as defective in binding ssDNA; EMSA: 100 nM Cy3 probe, 20 mM Tris-HCl pH 7.5, 50 mM NaCl, 5 mM MgCl2, 0.2 mM EDTA, 1 mM DTT, on ice 30 min; 6% native PAGE, 0.5x TBE, cold room; recombinant protein; label: 3' Cy3; single-stranded DNA

TTTTTTTTTTTTTTTTTTTTTTTTTTTTTTTTTTTTTTTTTTTTTTTT [oligo (dT)48]
binding result: binds more weakly

For at least one entry, the source does not settle the construct or the ends of the probe. Weaker means in comparison with the reference protein, sequence or condition of that experiment.
